# PubChem BioAssay AID504784 | Drosophila RNAi Screening Center, 2011
# Test: 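Genome-wide knock-down for genes giving too much or too little stored lipid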 (primary screen)
# System: Drosophila Kc167 embryonic cells
# Knock-down reagent: long dsRNA against Drosophila genes, about 250 ng dsRNA per well
# Timing: 4 days
# Treatment: cells fed 400 µM oleic acid bound to BSA
# Read-out: 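Cells imaged and segmented; ratio of lipid droplet area to nuclear area, log-transformed, then normalised as a B-score over the screen; higher means more stored lipid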
# Scale: droplet/nuclear area B-score: higher = more stored lipid (overstorage)
# The screen tested about 17,000 reagents; shown is a random part of those that have a named target and a result. 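Each column is one replicate's B-score; the combined score over replicates was not deposited, so single values may mislead.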 The numbers tell different reagents against one gene apart. Further read-outs or replicates are left out here. Reagent sequences are not shown.
gene knocked down,dsRNA no.,"droplet/nuclear area B-score, replicate 1"
CG6465 (GeneID 41274),1,-0.223
CG6873 (GeneID 32861),1,3.77
RabX2 (GeneID 31971),1,0.919
eIF1 (GeneID 38398),1,0.409
mew (GeneID 32275),1,-0.781
mew (GeneID 32275),2,-0.229
ETH (GeneID 44125),1,-0.0419
CG4681 (GeneID 37928),1,-2.12
CG12769 (GeneID 35770),1,0.243
CG6138 (GeneID 34454),1,0.173
LanA (GeneID 38723),1,0.809
RalGPS (GeneID 36881),1,-2.03
CG8136 (GeneID 41037),1,-0.729
scramb2 (GeneID 38362),1,-0.104
Orc6 (GeneID 36017),1,0.064
CG9029 (GeneID 33815),1,0.0473
YL-1 (GeneID 34516),1,0.641
psh (GeneID 32832),1,0.614
Spt3 (GeneID 41461),1,-0.556
cert (GeneID 38928),1,-1.36
CG12490 (GeneID 37623),1,1.12
CG18467 (GeneID 36958),1,0.801
CG13455 (GeneID 39667),1,0.109
HPS1 (GeneID 36656),1,0.0486
GstT4 (GeneID 32299),1,0.977
Prosbeta7 (GeneID 40639),1,-2.85
mth (GeneID 38058),1,-0.305
CG2652 (GeneID 31250),1,0.0406
CG2652 (GeneID 31250),2,0.0484
CG2680 (GeneID 31257),1,0.0744
Fmr1 (GeneID 37528),1,0.297
pira (GeneID 32229),1,1.14
CR33319 (GeneID 3772025),1,3.05
mRpL9 (GeneID 41859),1,0.823
SpdS (GeneID 41167),1,1.28
CG31326 (GeneID 41728),1,-0.434
Eip63E (GeneID 38433),1,0.775
nonA (GeneID 32603),1,-0.311
Or22b (GeneID 33336),1,-0.535
beta-Man (GeneID 40524),1,0.636
beta-Man (GeneID 40524),2,-0.283
CstF50 (GeneID 43734),1,0.174
Ak2 (GeneID 37834),1,-0.845
Mhc (GeneID 35007),1,5.12
CG13876 (GeneID 38031),1,-0.0158
Dll (GeneID 37973),1,-0.808
Obp44a (GeneID 35789),1,1.1
AP-2alpha (GeneID 33211),1,0.661
Lcp2 (GeneID 35818),1,-0.515
CG3558 (GeneID 48421),1,0.0662
CG5281 (GeneID 41375),1,0.019
mRpL17 (GeneID 38046),1,1.31
CG31087 (GeneID 43062),1,0.839
Acyp2 (GeneID 41910),1,-2.7
CG8508 (GeneID 41620),1,-0.72
CG14785 (GeneID 31094),1,-0.426
CG18518 (GeneID 34932),1,-1.36
CG8192 (GeneID 36723),1,-0.208
CG31266 (GeneID 42071),1,0.0161
CG30036 (GeneID 246408),1,-0.06
Mitofilin (GeneID 42587),1,-0.374
Psf1 (GeneID 38136),1,-0.785
CG13024 (GeneID 39880),1,-0.959
Vajk2 (GeneID 34811),1,0.721
CG9395 (GeneID 34742),1,-3.54
CG2021 (GeneID 38229),1,-0.0349
Elba3 (GeneID 33670),1,-0.807
Dnali1 (GeneID 41440),1,0.0451
vari (GeneID 35343),1,-0.142
mio (GeneID 33399),1,-0.739
mio (GeneID 33399),2,3.16
CG10949 (GeneID 35310),1,-1.76
CG13245 (GeneID 50456),1,0.105
CG14269 (GeneID 31312),1,0.38
mge (GeneID 38459),1,2.38
Sld5 (GeneID 43166),1,1.34
trp (GeneID 43542),1,-0.0457
CG5883 (GeneID 39352),1,-0.963
CG4465 (GeneID 42374),1,0.55
CG11019 (retired record) (GeneID 50472),1,-1.13
NimB4 (GeneID 34814),1,-0.0549
CG18004 (GeneID 36154),1,-0.0596
CG14086 (GeneID 40100),1,0.816
